Experimental data: PubChem BioAssay AID602196 (INSERM, 2012)

Assay: 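Modifiers of cisplatin sensitivity in A549 cells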
Cells: human A549 lung cancer cells
Reagent: siRNA pair against human genes
Timing: 48 h transfection before cisplatin; time from cisplatin to read-out not stated
Conditions: cisplatin at a dose killing half of control-siRNA cells; exact dose and duration not given
Read-out: 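Cisplatin cell death as a shift from the 50% death seen with control siRNA; siRNAs toxic or growth-blocking alone scored 0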
Scale: two-siRNA summed score (-2 to +2): higher = both siRNAs protect from cisplatin killing; -2 means both sensitise; mean protection from cisplatin (shift in death) and protection from cisplatin (shift in death), siRNA C and protection from cisplatin (shift in death), siRNA D: higher = protection from cisplatin killing
Call rule: 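siRNAs harmful alone (LDH or WST-1) get 0; others get +1 for less and -1 for more cisplatin killing; genes are active when the two siRNAs give the same sign, summing to ±2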
Meaning of the calls: active = both siRNAs shift cisplatin killing the same way; inactive = no consistent shift, or siRNA harmful alone
The deposit covers about 23,000 reagents; below is a random part of them. 455 of all reagents (2%) were called active. 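Active includes both protection and sensitisation; some change values fall well beyond the stated -50 to +50 range.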 Unmarked entries are inactive. The record does not give: the amount of reagent.

gene knocked down,two-siRNA summed score (-2 to +2),mean protection from cisplatin (shift in death) (%),"protection from cisplatin (shift in death), siRNA C (%)","protection from cisplatin (shift in death), siRNA D (%)"
SMCP,0,10.6,-9.7,30.9
ITPKB,2 (active),15.7,13.1,18.3
KCNMB4,0,0.7,-2.9,4.4
LOC285849,0,8.3,11.9,4.7
DTNB,1,18.7,19.4,17.9
LOC442550,1,14.7,6.9,22.4
RBM22,0,5.3,13.7,-3.2
ZNF562,-1,-8.5,-25.2,8.2
PRDX6,0,0.2,3,-2.5
LOC389143,0,-1,-4.6,2.6
MPPED2,0,7.8,9,6.5
FLJ44796 (retired record),1,14.8,22.1,7.5
TMED4,-1,-5.5,-15.9,4.9
C14orf39,0,8.7,8.7,8.7
GPATCH1,0,12,0.3,23.7
NCBP2L,-1,-7.8,7.9,-23.4
LOC441316,1,14.3,19.2,9.4
LOC440053,0,13.1,22.3,3.9
MAMDC4,0,-6.1,10.5,-22.7
LOC387912,0,-4.8,12.7,-22.3
IRX4,0,11.8,19.7,3.9
PFKFB2,0,12.2,11.4,13
CFAP299,0,-1.3,-7.4,4.8
UBE2Z,0,-0.3,-2.1,1.6
LOC440555,1,12,4.4,19.6
TWSG1,0,8.5,11.7,5.3
TUBG1,-1,-4.1,4.8,-12.9
LOC442377,0,-2.7,-3.7,-1.8
LOC203604,1,18.7,17.1,20.3
ZNF655,0,9.5,9.9,9.1
LOC442724,0,10,14.9,5.2
AFM,0,3.5,-0.3,7.3
MFN1,0,10.4,16,4.8
VPS8,0,12.4,3.6,21.3
NAA10,0,7,3.6,10.5
HTT,0,-2.9,-3.2,-2.7
WNT11,1,8.7,5,12.4
PPIAP55,0,5,11.2,-1.1
SLC43A3,0,17,24.8,9.1
